Source: PubChem BioAssay AID1159506 (NCATS, 2015).

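Genome-wide siRNA knockdown in TC32 Ewing sarcoma cells, comparing luciferase light from an NR0B1-promoter reporter with a CMV-promoter reporter 48 hours after transfection.
Each siRNA was applied at 20 nM.
A z-score of the log NR0B1-over-CMV signal, less the median of siRNAs with the same seed; more negative means a stronger specific loss of the NR0B1 reporter.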

The strongest results of the screen are mostly left out here.
Sequences are the guide (antisense) strand, without overhang.

- UUCUUCGUCAGGUUGUCUG against R3HCC1 | seed-corrected z-score -1.336
- UCUGUUGCAUGUCCAGGGC against FEM1A | seed-corrected z-score 1.088
- UAUGGAUGCACCACGAUCU against CELA1 | seed-corrected z-score 0.1971
- AUACUUUGGAUUUCUAUGC against CYP39A1 | seed-corrected z-score -0.9821
- UUCUGACUGAAAUUCUUCC against ZNF436 | seed-corrected z-score -0.3082
- UUGGACUCUUCUAAUGUCC against PPM1D | seed-corrected z-score 0.2837
- UAAGCAUCAACAGAGCAGC against POMT1 | seed-corrected z-score 0.09085
- UACACUCCAAGGUUGUUUU against SPRED3 | seed-corrected z-score -1.314
- UACCUUUGUAGUGCGCCUC against ZNF385A | seed-corrected z-score 0.2453
- UUUGCAGUCUGCCUAAAUC against NT5C1B | seed-corrected z-score -1.812
- UUGCAGCCCACGACGAUGA against RHOD | seed-corrected z-score -0.1239
- AAAGGAAACUCGGGCAAGC against KLF15 | seed-corrected z-score 0.7117
- UGGUGUAGAACAGCAAAGC against FAM65C | seed-corrected z-score -0.04911
- CACUCUACUGAUAUCACUG against DEFB119 | seed-corrected z-score -0.1248
- AUCGAGUCAUGAUAACUGC against HFM1 | seed-corrected z-score 0.1852
- UGAGUCCACAUAGCAGUCC against C22orf31 | seed-corrected z-score 0.9138
- UUUCCUUCUAUCUUUCUGC against CAPN9 | seed-corrected z-score -0.3213
- UUUGAUACCAAACUCAAUC against DISP1 | seed-corrected z-score -0.2979
- AACUGUUCCAUUCUUAUUC against LRSAM1 | seed-corrected z-score -0.01229
- UUGCAUUUUACCAUGGGUC against TWIST1 | seed-corrected z-score -0.517
- UCUAGGAUGGAGACCUUGC against PRKAR1B | seed-corrected z-score -0.8072
- UUCACUGUAGAGAUAAUUC against RPP30 | seed-corrected z-score 0.3481
- UUCCGGUCAGGCUUGAUGU against IQSEC3 | seed-corrected z-score -0.3893
- UCAAUGUAGAGUUUCCCUG against MLEC | seed-corrected z-score 0.5498
- UUCGGUUUUUAGGAUCACC against AKAP3 | seed-corrected z-score -0.377
- UGGUGGUAAAUGAACUUCC against CUL4B | seed-corrected z-score -0.9943
- UUCUCGGUUGCUGUACUCC against C15orf62 | seed-corrected z-score 1.738
- UCAGGUGCUUGAAAGGAGC against ADARB2 | seed-corrected z-score -1.663
- UUUACUUGAAUAAAGUUUC against XCL1 | seed-corrected z-score 0.6112
- UCUGGAUCGAGGUCGAAAC against ZNF358 | seed-corrected z-score -0.51
- UGUCUGUGACCUCAUAACC against CACNB3 | seed-corrected z-score -1.124
- UUAUGUAUUGAGAGAACUG against RPL5P1 | seed-corrected z-score -1.964
- UCAACUGCUAUCAAAUACC against ADAL | seed-corrected z-score -0.3325
- UAAGUAUUUUCGAUAAAGA against LOC644504 | seed-corrected z-score 0.4064
- UCACCUUUCCUGUUGGAUC against IGHMBP2 | seed-corrected z-score 0.03208
- AUCUCGUAGACUUUGAGGC against TBKBP1 | seed-corrected z-score -0.2075
- UUUGACAUCGAGGCUGUUC against TMPRSS4 | seed-corrected z-score 0.09633
- UCUCCAUACAGGAUAAGGG against ABHD14A | seed-corrected z-score 1.889
- UUAAUGAGAACGAUAUCUG against LOC728877 | seed-corrected z-score -0.6325
- UAGACAGAAUUGUACAGGG against APOLD1 | seed-corrected z-score -0.09472
- CUCAUGAGUGGUGCUGUUG against GGT2 | seed-corrected z-score 0.5537
- UUUCUAUGCACCGAAACUG against NADSYN1 | seed-corrected z-score 0.5797
- UCAUUGAUGUCGUUGUUGC against RNH1 | seed-corrected z-score 0.349
- UUGCAUACUCGUAAAGCUG against HS6ST3 | seed-corrected z-score 0.1876
- AUAAGUUAUAUCCUCUCUG against ALKBH3 | seed-corrected z-score 0.1895
- UCUUUUGGUAGUUCAGGUG against KLF11 | seed-corrected z-score -1.164
- UCCCGGUCAAAUAUCAGAG against WDR64 | seed-corrected z-score 0.5646

3 of the entries, repeated:

UUUCCUUCUAUCUUUCUGC against CAPN9 gave seed-corrected z-score -0.3213.
UCUAGGAUGGAGACCUUGC against PRKAR1B gave seed-corrected z-score -0.8072.
UCCCGGUCAAAUAUCAGAG against WDR64 gave seed-corrected z-score 0.5646.